Laboratory results from the supplement of paper PMC6411743.
± gives the standard deviation of the averaged measurements. This is a selection; strong and weak results do not stand in their true shares.

The chains behind the UniProt entries cited, without tags or fusion partners. Where a name states a change or a piece, a line headed by the entry shows the natural chain unless it says otherwise.
UniProt P57105: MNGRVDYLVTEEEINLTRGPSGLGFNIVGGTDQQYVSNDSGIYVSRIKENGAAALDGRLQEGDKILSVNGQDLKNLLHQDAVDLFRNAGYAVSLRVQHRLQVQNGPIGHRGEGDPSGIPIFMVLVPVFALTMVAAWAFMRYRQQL
UniProt Q9ULH1: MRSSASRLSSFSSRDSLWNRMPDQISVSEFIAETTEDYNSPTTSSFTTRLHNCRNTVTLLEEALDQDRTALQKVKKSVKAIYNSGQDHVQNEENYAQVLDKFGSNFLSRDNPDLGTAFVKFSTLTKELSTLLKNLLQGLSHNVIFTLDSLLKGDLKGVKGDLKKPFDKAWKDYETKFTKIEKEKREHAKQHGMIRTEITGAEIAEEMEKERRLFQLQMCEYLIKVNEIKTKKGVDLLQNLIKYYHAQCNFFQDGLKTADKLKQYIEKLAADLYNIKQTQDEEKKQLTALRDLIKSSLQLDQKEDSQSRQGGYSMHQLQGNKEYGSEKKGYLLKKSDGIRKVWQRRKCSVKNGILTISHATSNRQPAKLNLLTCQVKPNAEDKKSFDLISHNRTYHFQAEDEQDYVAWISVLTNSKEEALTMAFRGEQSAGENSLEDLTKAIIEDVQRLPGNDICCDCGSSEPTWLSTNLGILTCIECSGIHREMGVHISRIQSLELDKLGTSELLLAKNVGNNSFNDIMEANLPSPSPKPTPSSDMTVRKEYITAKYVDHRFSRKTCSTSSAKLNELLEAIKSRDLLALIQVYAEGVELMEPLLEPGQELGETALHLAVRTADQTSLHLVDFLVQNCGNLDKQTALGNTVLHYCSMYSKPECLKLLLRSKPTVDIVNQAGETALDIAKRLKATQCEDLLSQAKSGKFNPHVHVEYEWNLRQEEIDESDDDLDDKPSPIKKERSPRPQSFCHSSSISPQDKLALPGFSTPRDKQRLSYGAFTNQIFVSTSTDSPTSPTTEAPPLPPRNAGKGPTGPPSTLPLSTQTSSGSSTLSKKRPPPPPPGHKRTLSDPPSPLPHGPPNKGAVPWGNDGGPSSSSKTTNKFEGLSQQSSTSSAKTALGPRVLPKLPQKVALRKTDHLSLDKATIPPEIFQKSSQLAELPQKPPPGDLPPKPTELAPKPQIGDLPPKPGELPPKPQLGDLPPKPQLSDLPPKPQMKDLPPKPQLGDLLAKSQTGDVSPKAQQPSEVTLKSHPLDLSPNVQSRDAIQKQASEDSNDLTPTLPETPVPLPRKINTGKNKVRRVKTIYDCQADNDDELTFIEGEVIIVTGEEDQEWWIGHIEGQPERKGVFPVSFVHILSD
UniProt Q6IBW4: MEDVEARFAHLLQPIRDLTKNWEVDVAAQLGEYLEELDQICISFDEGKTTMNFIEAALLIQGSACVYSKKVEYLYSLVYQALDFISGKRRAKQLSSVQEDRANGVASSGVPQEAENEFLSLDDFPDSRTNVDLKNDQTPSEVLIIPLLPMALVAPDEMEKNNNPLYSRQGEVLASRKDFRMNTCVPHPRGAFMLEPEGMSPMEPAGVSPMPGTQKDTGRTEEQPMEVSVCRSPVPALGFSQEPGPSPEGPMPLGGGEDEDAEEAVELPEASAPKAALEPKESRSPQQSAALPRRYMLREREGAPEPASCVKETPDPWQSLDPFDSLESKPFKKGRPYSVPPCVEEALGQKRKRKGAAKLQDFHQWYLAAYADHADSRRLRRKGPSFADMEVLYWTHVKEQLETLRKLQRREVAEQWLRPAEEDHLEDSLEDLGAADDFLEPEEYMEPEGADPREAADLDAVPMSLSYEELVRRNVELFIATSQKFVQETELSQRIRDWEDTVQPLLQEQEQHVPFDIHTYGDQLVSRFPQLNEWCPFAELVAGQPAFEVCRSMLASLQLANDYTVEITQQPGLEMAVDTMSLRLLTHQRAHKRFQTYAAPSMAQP
UniProt Q96CS7: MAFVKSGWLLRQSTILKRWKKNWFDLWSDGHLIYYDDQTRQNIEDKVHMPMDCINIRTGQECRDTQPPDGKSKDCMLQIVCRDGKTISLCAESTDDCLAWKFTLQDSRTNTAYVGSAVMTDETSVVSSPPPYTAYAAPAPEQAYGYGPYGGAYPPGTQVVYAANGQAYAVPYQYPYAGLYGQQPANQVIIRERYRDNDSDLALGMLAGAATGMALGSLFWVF
UniProt Q5QP82: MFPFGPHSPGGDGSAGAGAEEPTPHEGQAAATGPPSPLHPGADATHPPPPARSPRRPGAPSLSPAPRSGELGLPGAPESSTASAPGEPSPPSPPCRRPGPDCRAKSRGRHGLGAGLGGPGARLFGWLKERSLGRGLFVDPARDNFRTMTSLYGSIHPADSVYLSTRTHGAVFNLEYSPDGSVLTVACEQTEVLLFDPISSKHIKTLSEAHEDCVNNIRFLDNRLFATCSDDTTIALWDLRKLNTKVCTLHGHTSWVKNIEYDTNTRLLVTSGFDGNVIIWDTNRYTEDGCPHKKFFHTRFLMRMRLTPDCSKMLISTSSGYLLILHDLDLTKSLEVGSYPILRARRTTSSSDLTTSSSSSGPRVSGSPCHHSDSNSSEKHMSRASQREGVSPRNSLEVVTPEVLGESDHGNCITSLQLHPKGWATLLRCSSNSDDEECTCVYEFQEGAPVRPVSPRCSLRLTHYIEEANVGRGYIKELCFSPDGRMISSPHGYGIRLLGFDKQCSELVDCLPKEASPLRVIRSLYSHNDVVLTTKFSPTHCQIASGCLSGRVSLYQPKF
UniProt Q96RQ1: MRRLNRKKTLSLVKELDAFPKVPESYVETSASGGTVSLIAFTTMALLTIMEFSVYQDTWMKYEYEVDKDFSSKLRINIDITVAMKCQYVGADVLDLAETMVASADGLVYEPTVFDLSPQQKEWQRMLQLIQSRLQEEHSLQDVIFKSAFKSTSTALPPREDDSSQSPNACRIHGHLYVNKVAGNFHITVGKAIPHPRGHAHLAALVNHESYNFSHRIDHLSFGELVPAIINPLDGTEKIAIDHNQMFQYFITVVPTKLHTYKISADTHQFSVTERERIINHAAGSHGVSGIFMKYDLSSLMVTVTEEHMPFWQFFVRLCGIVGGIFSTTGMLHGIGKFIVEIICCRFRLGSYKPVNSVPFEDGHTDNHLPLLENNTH
UniProt P0DMM9: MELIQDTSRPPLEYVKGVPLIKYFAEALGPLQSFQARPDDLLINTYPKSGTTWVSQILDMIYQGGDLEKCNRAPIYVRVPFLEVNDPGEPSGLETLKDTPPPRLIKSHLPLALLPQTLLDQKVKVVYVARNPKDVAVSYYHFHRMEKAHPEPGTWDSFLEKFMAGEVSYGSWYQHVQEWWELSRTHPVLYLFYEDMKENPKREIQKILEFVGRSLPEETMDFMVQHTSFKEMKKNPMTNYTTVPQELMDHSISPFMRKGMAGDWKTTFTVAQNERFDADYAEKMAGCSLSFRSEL
UniProt P0DMN0: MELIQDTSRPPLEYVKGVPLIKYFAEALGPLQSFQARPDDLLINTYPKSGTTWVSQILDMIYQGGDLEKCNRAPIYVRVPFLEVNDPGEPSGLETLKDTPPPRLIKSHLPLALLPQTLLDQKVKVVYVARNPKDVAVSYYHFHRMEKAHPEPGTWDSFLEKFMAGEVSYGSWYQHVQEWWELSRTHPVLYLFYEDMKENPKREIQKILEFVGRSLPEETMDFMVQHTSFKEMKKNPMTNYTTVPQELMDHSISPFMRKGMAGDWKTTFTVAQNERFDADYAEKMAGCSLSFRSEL
UniProt Q9BY42: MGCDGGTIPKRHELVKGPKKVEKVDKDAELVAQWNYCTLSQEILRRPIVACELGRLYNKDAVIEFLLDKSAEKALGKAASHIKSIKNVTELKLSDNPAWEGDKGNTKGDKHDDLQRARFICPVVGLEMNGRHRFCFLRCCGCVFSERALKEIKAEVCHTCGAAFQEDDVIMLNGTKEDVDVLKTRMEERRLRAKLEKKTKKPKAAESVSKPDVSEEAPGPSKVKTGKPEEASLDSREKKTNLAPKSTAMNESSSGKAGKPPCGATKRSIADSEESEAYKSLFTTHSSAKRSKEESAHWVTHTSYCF
UniProt P07203, whole entry: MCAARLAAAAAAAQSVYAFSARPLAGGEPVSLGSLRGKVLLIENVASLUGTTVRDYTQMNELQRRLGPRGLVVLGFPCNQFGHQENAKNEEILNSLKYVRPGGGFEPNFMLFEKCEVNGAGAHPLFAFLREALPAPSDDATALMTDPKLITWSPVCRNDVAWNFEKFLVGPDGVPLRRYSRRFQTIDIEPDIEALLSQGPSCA
UniProt Q13098: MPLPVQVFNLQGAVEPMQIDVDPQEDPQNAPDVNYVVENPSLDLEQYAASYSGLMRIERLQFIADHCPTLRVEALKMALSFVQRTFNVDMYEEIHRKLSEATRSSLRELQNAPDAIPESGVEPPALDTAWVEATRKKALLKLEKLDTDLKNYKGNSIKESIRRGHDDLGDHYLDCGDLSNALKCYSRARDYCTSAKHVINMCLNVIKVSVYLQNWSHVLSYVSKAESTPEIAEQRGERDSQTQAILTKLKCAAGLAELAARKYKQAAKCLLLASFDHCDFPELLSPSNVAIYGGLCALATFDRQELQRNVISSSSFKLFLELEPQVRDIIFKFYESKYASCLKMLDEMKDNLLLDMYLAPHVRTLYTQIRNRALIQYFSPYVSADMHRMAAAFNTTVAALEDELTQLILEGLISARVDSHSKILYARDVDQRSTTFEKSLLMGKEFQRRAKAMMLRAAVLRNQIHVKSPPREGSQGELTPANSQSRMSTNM
UniProt P15289: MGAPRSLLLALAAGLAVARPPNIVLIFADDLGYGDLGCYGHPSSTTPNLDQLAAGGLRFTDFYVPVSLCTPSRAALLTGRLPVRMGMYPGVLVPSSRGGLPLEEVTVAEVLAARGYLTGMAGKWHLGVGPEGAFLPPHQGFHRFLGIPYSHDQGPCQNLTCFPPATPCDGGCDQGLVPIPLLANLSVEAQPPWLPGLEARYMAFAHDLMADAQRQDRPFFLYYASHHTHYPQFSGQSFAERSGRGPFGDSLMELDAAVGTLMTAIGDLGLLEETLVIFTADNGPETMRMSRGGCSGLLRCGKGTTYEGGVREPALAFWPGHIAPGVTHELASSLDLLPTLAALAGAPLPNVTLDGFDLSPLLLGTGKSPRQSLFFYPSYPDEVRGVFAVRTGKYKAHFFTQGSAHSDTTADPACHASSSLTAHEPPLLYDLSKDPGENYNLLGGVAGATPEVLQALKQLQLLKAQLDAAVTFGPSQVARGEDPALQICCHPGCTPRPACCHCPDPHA
UniProt P28370, whole entry: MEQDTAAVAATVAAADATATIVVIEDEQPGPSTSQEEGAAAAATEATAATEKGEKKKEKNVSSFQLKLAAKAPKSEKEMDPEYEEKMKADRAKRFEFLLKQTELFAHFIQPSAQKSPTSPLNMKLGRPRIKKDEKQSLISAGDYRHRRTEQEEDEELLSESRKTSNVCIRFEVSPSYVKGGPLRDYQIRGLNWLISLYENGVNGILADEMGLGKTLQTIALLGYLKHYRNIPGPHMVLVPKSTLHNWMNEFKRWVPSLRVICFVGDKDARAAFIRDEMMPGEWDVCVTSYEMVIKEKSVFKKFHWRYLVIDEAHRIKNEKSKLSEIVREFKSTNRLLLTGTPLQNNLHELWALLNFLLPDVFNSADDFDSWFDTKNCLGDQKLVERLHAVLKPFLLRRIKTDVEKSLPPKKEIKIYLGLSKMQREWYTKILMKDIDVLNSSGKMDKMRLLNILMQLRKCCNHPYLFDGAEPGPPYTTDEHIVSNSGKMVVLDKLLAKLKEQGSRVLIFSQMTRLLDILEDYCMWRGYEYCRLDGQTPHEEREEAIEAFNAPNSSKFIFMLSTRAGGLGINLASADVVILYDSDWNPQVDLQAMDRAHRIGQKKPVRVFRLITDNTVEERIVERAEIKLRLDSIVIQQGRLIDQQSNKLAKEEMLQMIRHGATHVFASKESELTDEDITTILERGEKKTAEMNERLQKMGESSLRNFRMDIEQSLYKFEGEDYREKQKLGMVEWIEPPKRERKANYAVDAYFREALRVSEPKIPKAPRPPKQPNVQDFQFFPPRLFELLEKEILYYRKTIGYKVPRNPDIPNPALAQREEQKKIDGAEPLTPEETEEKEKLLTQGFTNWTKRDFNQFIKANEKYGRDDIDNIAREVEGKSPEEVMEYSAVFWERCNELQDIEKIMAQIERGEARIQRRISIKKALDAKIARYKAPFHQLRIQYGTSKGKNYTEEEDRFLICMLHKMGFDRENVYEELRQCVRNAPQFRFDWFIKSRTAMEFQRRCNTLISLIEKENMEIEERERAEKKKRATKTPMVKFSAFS
UniProt O00303, whole entry: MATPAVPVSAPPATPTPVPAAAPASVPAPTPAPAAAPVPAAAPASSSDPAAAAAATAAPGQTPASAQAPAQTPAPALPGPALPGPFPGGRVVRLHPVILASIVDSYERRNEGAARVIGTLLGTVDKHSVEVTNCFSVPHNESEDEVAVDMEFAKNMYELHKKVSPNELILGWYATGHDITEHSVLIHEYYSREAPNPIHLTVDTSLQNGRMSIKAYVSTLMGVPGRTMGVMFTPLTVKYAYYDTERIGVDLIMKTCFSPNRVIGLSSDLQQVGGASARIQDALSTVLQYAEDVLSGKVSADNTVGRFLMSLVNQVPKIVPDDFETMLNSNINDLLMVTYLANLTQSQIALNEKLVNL

Compound: Nc1ncnc2c1ncn2[C@@H]1O[C@H](COP(=O)(O)OP(=O)(O)OP(=O)(O)O)[C@@H](O)[C@H]1O [adenosine triphosphate]
Test: NP40-soluble protein abundance relative to vehicle (solubility fold change) (ratio); higher = more soluble protein in presence of ATP
Outline: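 Crude Jurkat lysate, prepared by Dounce homogenisation, was exposed to eight concentrations from 0.1 to 10 mM for 10 min at room temperature and then 3 min at 37 °C. Solubilisation used 0.8% NP40 with benzonase for 60 min at 4 °C, followed by ultracentrifugation and TMT labelling of the supernatant for LC-MS/MS. After vsn normalisation of intensities, each value is the fold change against the detergent-processed vehicle within each replicate, across three independent experiments.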

Target	NP40-soluble protein abundance (concentration: 1mM)	NP40-soluble protein abundance (concentration: 2mM)	NP40-soluble protein abundance (concentration: 4mM)	NP40-soluble protein abundance (concentration: 6mM)	NP40-soluble protein abundance (concentration: 8mM)	NP40-soluble protein abundance (concentration: 10mM)
A0A087WUB9|Q8WYA6 (UniProt Q8WYA6)	0.998 ± 0.012	1 ± 0.031	1.03 ± 0.035	1.09 ± 0.021	1.1 ± 0.029	1.12 ± 0.041
A0A0D9SFK2|Q92614 and related entries (UniProt Q92614)	0.963 ± 0.019	0.945 ± 0.021	0.915 ± 0.027	0.932 ± 0.059	0.912 ± 0.039	0.929 ± 0.034
A0A0A6YY95|Q9Y240 (UniProt Q9Y240)	0.973 ± 0.037	1.02 ± 0.051	1.06 ± 0.054	1.04 ± 0.072	1.01 ± 0.03	1.05 ± 0.027
A0A096LP59|P46100 and related entries (UniProt P46100)	0.978 ± 0.038	0.981 ± 0.033	0.963 ± 0.029	1.02 ± 0.051	0.96 ± 0.031	1 ± 0.041
A0A087WUM0|A0A087WYV9|A0A087X1F5 (UniProt P57105)	0.939 ± 0.077	0.93 ± 0.067	0.942 ± 0.092	0.937 ± 0.019	0.93 ± 0.013	0.909 ± 0.051
A0A0A0MSS3|Q5T6P1 and related entries (UniProt Q8ND83)	0.967 ± 0.047	0.997 ± 0.019	1.02 ± 0.059	0.991 ± 0.051	0.978 ± 0.061	1.01 ± 0.056
A0A0C4DG33|H7BZH3 and related entries (UniProt O43933)	1.1 ± 0.086	1.11 ± 0.064	1.18 ± 0.029	1.09 ± 0.041	1.17 ± 0.077	1.14 ± 0.067
A0A0A0MRE5|Q9ULH1 and related entries (UniProt Q9ULH1)	0.952 ± 0.021	0.965 ± 0.026	0.936 ± 0.046	0.961 ± 0.012	0.939 ± 0.0032	0.971 ± 0.049
A0A0A0MSY7|E5KNQ5 and related entries (UniProt O00142)	1.1 ± 0.098	1.02 ± 0.062	1.01 ± 0.11	0.894 ± 0.094	1.06 ± 0.12	0.969 ± 0.099
A0A087WTU1|A0A087X0S7|A0A0B4J2G4|A0A0C4DH00|Q15345 and related entries (UniProt Q15345)	1.02 ± 0.056	0.956 ± 0.033	1.13 ± 0.088	1.15 ± 0.12	0.983 ± 0.035	0.953 ± 0.025
A0A0A6YYG7|Q6IBW4 and related entries (UniProt Q6IBW4)	1.06 ± 0.07	1.05 ± 0.08	1.08 ± 0.054	1.12 ± 0.12	1.07 ± 0.047	1.09 ± 0.06
A0A087WTU9|A0A087WZY3|Q8TCU4 and related entries (UniProt Q8TCU4)	1.48 ± 0.91	0.841 ± 0.16	0.818 ± 0.046	0.903 ± 0.018	0.91 ± 0.017	0.865 ± 0.064
A0A0A0MSE9|B7WPA5 and related entries (UniProt Q96CS7)	1.15 ± 0.087	1.02 ± 0.045	1.06 ± 0.093	0.961 ± 0.11	1.08 ± 0.073	1.12 ± 0.18
A0A0A0MQT4|Q5QP82 and related entries (UniProt Q5QP82)	1.05 ± 0.071	1.03 ± 0.097	1.07 ± 0.14	1.02 ± 0.1	1.04 ± 0.12	1.08 ± 0.14
A0A0A0MTD5|Q8IYU8 (UniProt Q8IYU8)	1.07 ± 0.32	1.16 ± 0.14	1.1 ± 0.12	1.01 ± 0.1	1.07 ± 0.11	1.01 ± 0.17
A0A087WU02|F8VPA6 and related entries (UniProt Q96RQ1)	1.01 ± 0.1	1.03 ± 0.036	1.06 ± 0.15	0.962 ± 0.21	1.06 ± 0.088	0.9605 ± 0.0044
A0A0B4J2A0|Q9UHJ6 (UniProt Q9UHJ6)	1 ± 0.042	0.984 ± 0.056	0.971 ± 0.087	0.992 ± 0.057	0.94 ± 0.029	0.97 ± 0.017
A0A0A6YYL2|P0DMM9 and related entries (UniProt P0DMN0+P0DMM9)	1.01 ± 0.13	1.01 ± 0.057	0.992 ± 0.068	0.98 ± 0.083	0.994 ± 0.081	0.965 ± 0.035
A0A087WUS0|E7ETK0 and related entries (UniProt P62847)	0.825 ± 0.05	0.803 ± 0.1	0.757 ± 0.14	0.746 ± 0.13	0.637 ± 0.17	0.734 ± 0.1
A0A0A0MQR2|Q9BY42 (UniProt Q9BY42)	0.958 ± 0.045	0.966 ± 0.021	0.937 ± 0.023	1.01 ± 0.026	0.935 ± 0.018	0.9485 ± 0.0059
A0A087WUQ6|P07203 (UniProt P07203)	1.03 ± 0.073	1 ± 0.023	0.978 ± 0.026	0.975 ± 0.039	0.945 ± 0.077	0.99 ± 0.036
A0A075B738|P16284 (UniProt P16284)	0.938 ± 0.054	0.943 ± 0.037	0.933 ± 0.021	0.972 ± 0.035	0.899 ± 0.016	0.914 ± 0.058
A0A096LP07|A0A096LPJ3|A8K070 and related entries (UniProt Q13098)	0.92 ± 0.015	0.935 ± 0.023	0.902 ± 0.053	0.884 ± 0.024	0.938 ± 0.067	0.931 ± 0.017
A0A087WZ30|A0A087X072|O94761 (UniProt O94761)	1.08 ± 0.27	0.925 ± 0.1	0.976 ± 0.041	0.919 ± 0.22	1 ± 0.028	1.1 ± 0.24
A0A087WVN1|Q5JPI9 (UniProt Q5JPI9)	1.01 ± 0.028	1.06 ± 0.046	1.1 ± 0.11	1.09 ± 0.11	1.02 ± 0.065	1.03 ± 0.045
A0A0C4DFZ2|P15289 (UniProt P15289)	0.945 ± 0.029	0.997 ± 0.023	0.991 ± 0.026	1 ± 0.022	0.941 ± 0.025	0.912 ± 0.021
A0A087WZX0|Q86UU0 and related entries (UniProt Q86UU0)	0.995 ± 0.013	0.99 ± 0.072	0.985 ± 0.076	0.9883 ± 0.009	0.917 ± 0.13	0.923 ± 0.12
A0A0A0MRP6|B7ZLQ5 and related entries (UniProt P28370)	1.11 ± 0.038	1.13 ± 0.027	1.12 ± 0.078	1.19 ± 0.042	1.16 ± 0.066	1.18 ± 0.043
A0A0D9SEZ9|O00303 (UniProt O00303)	0.962 ± 0.072	1.04 ± 0.075	1.06 ± 0.066	1.16 ± 0.12	1.24 ± 0.045	1.33 ± 0.091

Pulled one by one from the list above, two records:
Target	NP40-soluble protein abundance (concentration: 1mM)	NP40-soluble protein abundance (concentration: 2mM)	NP40-soluble protein abundance (concentration: 4mM)	NP40-soluble protein abundance (concentration: 6mM)	NP40-soluble protein abundance (concentration: 8mM)	NP40-soluble protein abundance (concentration: 10mM)
A0A0A0MQT4|Q5QP82 and related entries (UniProt Q5QP82)	1.05 ± 0.071	1.03 ± 0.097	1.07 ± 0.14	1.02 ± 0.1	1.04 ± 0.12	1.08 ± 0.14
A0A0A6YYG7|Q6IBW4 and related entries (UniProt Q6IBW4)	1.06 ± 0.07	1.05 ± 0.08	1.08 ± 0.054	1.12 ± 0.12	1.07 ± 0.047	1.09 ± 0.06
